Reference: PubChem BioAssay AID2685 (National Center for Advancing Translational Sciences (NCATS), 2010)
This is one part of the list. Further columns of the screen follow, without active or inactive calls. The list favours compounds with an active or inconclusive main result. Potencies come from curve fits of mixed quality, noted in brackets.

Experiment: qHTS Assay for Lipid Storage Modulators in Drosophila S3 Cells;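 on cell number change: cells counted by Cell Tracker Red CMTPX staining in the red channel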
Conditions: BODIPY lipid droplet fluorescence, 18-24 h; for cell number change: measured here: cell count max response, cells fed with added oleic acid
Method in brief: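 Drosophila S3 cells loaded with oleic acid (400 uM, as added) and compounds at several concentrations; lipid droplets imaged by 488-nm laser-scanning cytometry, 500–530 nm intensity and object ratio to cell channel. Percent activity normalized to 20 uM Triacsin C.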

[1] = measured here: lipid fluorescence (Fed channel) AC50, cells fed with added oleic acid
[2] = measured here: cell number channel AC50, cells fed with added oleic acid

| Structure (SMILES) | cell number change | AC50 [1] | AC50 [2] |
| --- | --- | --- | --- |
| COc1ccc(C(=O)/C=C/c2ccc(OC3CSC3)cc2)cc1 | 6.04% | 23.1 µM [rising, single point] |  |
| Clc1cccc2sc(N3CCCC3)nc12 |  |  | 0.0731 µM [falling, partial curve, poor fit] |
| O=C(NCCCl)c1ccc(OCc2ccccc2)cc1Cl | -17.1% |  |  |
| CC(NC(=S)Nc1ccccc1C(F)(F)F)C1CC2CCC1C2 (centres undefined) | 12.8% | 4.11 µM [falling, single point] |  |
| CCCCNC(=O)Nc1c(C)cc(SC#N)cc1C | 16.7% | 6.51 µM [rising, single point] | 4.11 µM [rising, partial curve, poor fit] |
| Cn1nc(C(=O)NCc2ccc(Cl)cc2)c2c1-c1ccccc1S(=O)(=O)C2 | 1.32% |  | 0.58 µM [falling, single point] |
| N#CCCN1CCN(C(=O)c2c(N)no[n+]2[O-])CC1 | -15.8% |  |  |
| COc1cc(OC)cc(-c2n[nH]c(=S)n2-c2ccc3c(c2)OCO3)c1 |  | 1.84 µM [rising, partial curve, poor fit] | 0.206 µM [rising, full curve] |
| O=C(CN1C(=O)c2ccc([N+](=O)[O-])cc2C1=O)NCC1CCCO1 (centres undefined) |  | 0.82 µM [falling, single point] |  |
| CC(C)(CNC(=O)c1ccc(NS(=O)(=O)c2ccc(Br)cc2)cc1)N1CCOCC1 | -27.8% | 4.61 µM [falling, full curve] | 4.61 µM [falling, full curve, poor fit] |
| COC(=O)c1cn(C(=O)c2ccccc2Cl)c2ccccc12 | 23.1% | 16.4 µM [falling, partial curve, poor fit] |  |
| O=Cc1c(OCc2ccccc2)ccc2ccccc12 | -26.2% |  | 0.517 µM [falling, single point] |
| CN(C)S(=O)(=O)c1ccc(NC(=O)c2cc(F)c(F)cc2Cl)cc1 | 106% |  | 29.1 µM [rising, single point] |
| COc1cccc(N(CC(=O)NC2CCCC2)C(=O)Cn2nnc(-c3ccc(C)o3)n2)c1 | -12.7% |  |  |
| CCC1CCCCN1C(=O)C(=O)c1cn(CC(=O)N(CC)CC)c2ccccc12 (centres undefined) | 3.18% |  |  |
| O=C(O)c1cc(S(=O)(=O)Nc2ccc3cn[nH]c3c2)ccc1O | -5.29% | 0.58 µM [rising, single point] | 6.51 µM [rising, single point] |
| Cc1noc(C)c1C(=O)N1CCN(S(=O)(=O)c2ccc(F)cc2)CC1 | -16% | 6.51 µM [falling, single point] | 6.51 µM [falling, single point] |
| Cc1ccc(S(=O)(=O)NC2c3cccc4cccc(c34)C2Sc2nc(C)cc(C)n2)cc1 (centres undefined) | -9.78% |  |  |
| Cc1ccc(OCCCC(=O)NC(C)c2ccccc2)cc1 (centres undefined) | 12.6% | 0.103 µM [falling, full curve, poor fit] |  |
| Cc1ccc2c(c1)-c1c(ssc1=S)C(C)(C)N2C(=O)c1ccco1 | -74.9% | 10.3 µM [falling, partial curve] | 11.6 µM [falling, partial curve] |

| Structure (SMILES) | cell number change | AC50 [1] | AC50 [2] |
| --- | --- | --- | --- |
| C=CCSc1nc(N)c(C(=O)Nc2ccccc2)cc1C#N |  |  | 2.31 µM [rising, partial curve] |
| COc1ccc2cc(C(=O)/C=C/c3cc(OC)c(OC)c(OC)c3)ccc2c1 | 20.6% | 23.1 µM [falling, partial curve, poor fit] |  |
| Cc1ccc(S(=O)(=O)N2CCCCC2)cc1NC(=O)c1cccnc1 |  | 6.51 µM [rising, single point] |  |
| CCOC(=O)c1ccc(OCCOc2ccccc2C)cc1 | -4.01% |  |  |
| COc1ccc2c(=O)c(-c3ccc4c(c3)OCO4)coc2c1 | 31.8% | 0.146 µM [rising, full curve] | 1.84 µM [rising, partial curve, poor fit] |
| c1cncc(-c2csc(-c3cccnc3)n2)c1 | -4.17% | 29.1 µM [falling, single point] |  |
| Cc1nc2c(-c3ccccc3)cnn2c(N2CCOCC2)c1C |  | 6.51 µM [falling, single point] |  |
| CS(=O)(=O)Nc1cccc(C2=NN(C(=O)c3ccco3)C(c3cccs3)C2)c1 (centres undefined) | -1.74% | 1.46 µM [rising, partial curve] |  |
| Cc1cccc(C(=O)OCc2cc3ccccc3[nH]c2=O)c1 | -45.5% | 11.6 µM [falling, partial curve] | 9.2 µM [falling, partial curve] |
| COCCN1CCN(c2cc(-c3ccccc3)nc3cc(-c4cccc(F)c4)nn23)CC1 | -23.5% | 29.1 µM [falling, single point] |  |
| O=C1c2cccc(OCc3ccc(F)cc3)c2CCN1Cc1ccc(F)cc1 | -22% |  |  |
| CCOc1ccc(-n2c(SCC(=O)NC3CCS(=O)(=O)C3)nnc2-c2cccnc2)cc1 (centres undefined) | -4.07% | 0.651 µM [rising, partial curve, poor fit] | 0.651 µM [rising, partial curve, poor fit] |
| CC(=O)c1c(C)[nH]c(C(=O)CSc2nnc(-c3ccccc3)o2)c1C |  | 29.1 µM [falling, single point] |  |
| Cc1ccc2nc(-c3ccncc3)c(NC3CCCCC3)n2c1 |  | 0.731 µM [rising, single point] | 0.651 µM [rising, single point] |
| CN(C)S(=O)(=O)N(CC(=O)NCCSCc1ccccc1)c1ccccc1 | 1.73% | 1.84 µM [falling, partial curve] |  |
| CC(CC(=O)Nc1ccc(C(N)=O)cc1)c1ccccc1 (centres undefined) | 13.9% | 1.46 µM [rising, full curve] |  |
| Cc1cc(C)n(-c2ccc(C(=O)OCC(=O)NCc3ccco3)cc2)n1 | -19.2% |  |  |
| CC(C)(CNC(=O)c1cc(-c2ccc(Cl)s2)nc2ccccc12)N1CCOCC1 | 96% |  | 13 µM [rising, partial curve] |
| CC(C)c1nc(SCC(=O)Nc2c[nH]c(=O)[nH]c2=O)c2cnn(-c3ccccc3)c2n1 | 21.8% |  |  |
| COc1ccccc1S(=O)(=O)CC(O)COc1ccccc1Cl (centres undefined) | -1.39% | 0.708 µM [falling, full curve] |  |

Grouped by structure: the compounds so far with fluorine.

| Structure (SMILES) | cell number change | AC50 [1] | AC50 [2] |
| --- | --- | --- | --- |
| CC(NC(=S)Nc1ccccc1C(F)(F)F)C1CC2CCC1C2 (centres undefined) | 12.8% | 4.11 µM [falling, single point] |  |
| CN(C)S(=O)(=O)c1ccc(NC(=O)c2cc(F)c(F)cc2Cl)cc1 | 106% |  | 29.1 µM [rising, single point] |
| Cc1noc(C)c1C(=O)N1CCN(S(=O)(=O)c2ccc(F)cc2)CC1 | -16% | 6.51 µM [falling, single point] | 6.51 µM [falling, single point] |
| COCCN1CCN(c2cc(-c3ccccc3)nc3cc(-c4cccc(F)c4)nn23)CC1 | -23.5% | 29.1 µM [falling, single point] |  |
| O=C1c2cccc(OCc3ccc(F)cc3)c2CCN1Cc1ccc(F)cc1 | -22% |  |  |

Retrieved by compound from the list above, two records:

| Structure (SMILES) | cell number change | AC50 [1] | AC50 [2] |
| --- | --- | --- | --- |
| Cc1nc2c(-c3ccccc3)cnn2c(N2CCOCC2)c1C |  | 6.51 µM [falling, single point] |  |
| CCOC(=O)c1ccc(OCCOc2ccccc2C)cc1 | -4.01% |  |  |

(further entries)

| Structure (SMILES) | cell number change | AC50 [1] | AC50 [2] |
| --- | --- | --- | --- |
| O=C(/C=C/c1ccc2c(c1)OCO2)NCCCN1CCOCC1 | 1.68% | 0.058 µM [rising, full curve, poor fit] |  |
| C=CCn1c(SCc2cc(=O)n3ccsc3n2)nc2sc(C)c(C)c2c1=O | -12.7% | 0.259 µM [rising, partial curve, poor fit] | 6.51 µM [rising, single point] |
| O=C(N/N=C/c1c(O)n(-c2ccccc2Cl)c(=O)c2ccccc12)c1cccnc1 | 43.7% | 23.1 µM [rising, single point] | 29.1 µM [rising, single point] |
| O=c1cc(-c2ccccc2Cl)oc2c(NS(=O)(=O)c3cccc4nsnc34)ccc(O)c12 | 12.7% | 0.411 µM [rising, full curve] |  |
| CCOC(=O)Cc1csc(NC(=O)COc2ccc3c(C)cc(=O)oc3c2)n1 | -16.8% | 2.31 µM [falling, partial curve, poor fit] |  |
| C#Cc1cccc(NC(=O)Cc2cccs2)c1 | 36.1% |  | 18.4 µM [rising, single point] |
| COc1ccc(-n2c(SCC(=O)Nc3cc(C)on3)nc3c([nH]c4ccccc43)c2=O)cc1OC | -10.8% | 4.61 µM [rising, partial curve, poor fit] |  |
| COc1ccc(/C=N/NC(=O)c2ccn[nH]2)cc1Cn1cc([N+](=O)[O-])cn1 | 24.4% | 10.3 µM [rising, partial curve] |  |
| Cc1ccc2nc3n(c2c1)CCCN3 | 19.2% | 13 µM [rising, partial curve, poor fit] |  |
| CCn1cc(C(=O)OCC(=O)NCc2ccc3c(c2)OCO3)c(=O)c2ccc(C)nc21 | -4.71% | 0.116 µM [rising, full curve, poor fit] |  |
| Nc1ccc(C(=O)N/N=C/c2cn(Cc3ccccc3)c3ccccc23)cc1 | -31.2% |  | 14.6 µM [falling, single point] |
| Cc1ccc(-n2c(C3CC3c3ccc(Cl)cc3)n[nH]c2=S)cc1 (centres undefined) | -31.7% |  | 0.259 µM [rising, full curve, poor fit] |
| Cc1cccc(C)c1NC(=O)COC(=O)c1c(C)nn(-c2ccccc2)c1C | -5.74% | 29.1 µM [falling, single point] | 1.64 µM [falling, partial curve, poor fit] |
| O=C(NCCC1=CCCCC1)C1CCN(C(=O)Cc2ccccc2)CC1 | -40.3% |  | 4.11 µM [falling, partial curve] |
| CC(C)CC(=O)N1CCN(C(=O)CCC2CCCC2)CC1 | 4.48% | 0.82 µM [falling, partial curve, poor fit] |  |
| COc1cc(/C=C2\SC(=S)N(CCC(=O)NC3CCCC3)C2=O)cc(OC)c1OC | -23.8% | 6.51 µM [rising, single point] |  |
| Clc1ccc(-c2nc3cnccn3c2Nc2ccc3c(c2)OCO3)cc1 |  |  | 0.291 µM [rising, partial curve, poor fit] |
| Cc1cccc(-c2nc(CS(=O)CC(=O)NCC3CCCO3)c(C)o2)c1 (centres undefined) | 8.97% |  |  |
| CC(C)C[C@H](NC(=O)c1nc[nH]c1C(=O)N(C)Cc1ccccc1)C(=O)OCc1ccccc1 | -10.1% |  |  |
| O=C(NCc1ccc(Cl)cc1)C1CCCN(S(=O)(=O)c2cnc[nH]2)C1 (centres undefined) | 30.6% | 6.51 µM [rising, partial curve, poor fit] | 6.51 µM [rising, partial curve, poor fit] |
